Results deposited as PubChem BioAssay AID504774 (Drosophila RNAi Screening Center, 2011)
Aim: 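Genes required for cells to withstand methyl methanesulphonate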 (primary screen). System: Drosophila Kc167 cells. Reagent: long dsRNA against Drosophila genes, about 0.25 µg dsRNA per well. Duration: about 6 days: 3 days knock-down, then 3 days with or without MMS. Conditions: methyl methanesulphonate 0.004% (w/v) for 3 days after knock-down. Read-out: 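ATP-dependent luminescence as a measure of live cells in MMS-exposed wells, quantile normalised within each plate, with replicate values also given as a mean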. Scale: mean viability with MMS: higher = more surviving cells after MMS.
The deposit covers about 23,000 reagents; this is an unselected part of those that have a named target and a result. 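Values are quantile-normalised luminescence on an arbitrary scale; higher means more cells surviving MMS.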 Names joined by + are all predicted targets of the reagent. Not all columns of the deposit are shown.

{"target": "CG32073", "dsRNA": "DRSC09087", "mean viability with MMS": 3.38e6}
{"target": "CG32073", "dsRNA": "DRSC09894", "mean viability with MMS": 3.76e6}
{"target": "CG13159", "dsRNA": "DRSC06283", "mean viability with MMS": 3.53e6}
{"target": "alien + CG17906", "dsRNA": "DRSC02641", "mean viability with MMS": 3.60e6}
{"target": "Wdfy2 (WD repeat and FYVE domain containing 2)", "dsRNA": "DRSC02822", "mean viability with MMS": 3.71e6}
{"target": "alpha-Est1 (alpha-Esterase-1)", "dsRNA": "DRSC12612", "mean viability with MMS": 3.41e6}
{"target": "ODA-Dnal1 (Outer dynein arm dynein axonemal light chain 1)", "dsRNA": "DRSC07270", "mean viability with MMS": 3.60e6}
{"target": "tud (tudor)", "dsRNA": "DRSC04719", "mean viability with MMS": 3.59e6}
{"target": "mst (misato)", "dsRNA": "DRSC20582", "mean viability with MMS": 3.54e6}
{"target": "CG32195", "dsRNA": "DRSC09533", "mean viability with MMS": 3.50e6}
{"target": "Cbl (Cbl proto-oncogene)", "dsRNA": "DRSC10764", "mean viability with MMS": 3.71e6}
{"target": "Cbl (Cbl proto-oncogene)", "dsRNA": "DRSC11111", "mean viability with MMS": 3.44e6}
{"target": "Tsp26A (Tetraspanin 26A)", "dsRNA": "DRSC03135", "mean viability with MMS": 3.60e6}
{"target": "Ibf2 (Insulator binding factor 2)", "dsRNA": "DRSC16551", "mean viability with MMS": 3.29e6}
{"target": "beat-Va (beaten path Va)", "dsRNA": "DRSC14192", "mean viability with MMS": 3.36e6}
{"target": "CG31706", "dsRNA": "DRSC22704", "mean viability with MMS": 3.46e6}
{"target": "CG42355", "dsRNA": "DRSC07967", "mean viability with MMS": 3.65e6}
{"target": "CG14627", "dsRNA": "DRSC18630", "mean viability with MMS": 3.37e6}
{"target": "olf186-M", "dsRNA": "DRSC07657", "mean viability with MMS": 3.46e6}
{"target": "CG8006", "dsRNA": "DRSC10949", "mean viability with MMS": 3.38e6}
{"target": "MBD-R2", "dsRNA": "DRSC14180", "mean viability with MMS": 3.54e6}
{"target": "CG3735", "dsRNA": "DRSC04411", "mean viability with MMS": 3.45e6}
{"target": "CG8401", "dsRNA": "DRSC07165", "mean viability with MMS": 3.60e6}
{"target": "MAN1", "dsRNA": "DRSC04342", "mean viability with MMS": 3.52e6}
{"target": "Dph2 (Diphthamide biosynthesis 2)", "dsRNA": "DRSC16222", "mean viability with MMS": 3.63e6}
{"target": "wbl (windbeutel)", "dsRNA": "DRSC07718", "mean viability with MMS": 3.54e6}

The list goes on; the last 3 above are carried over.
{"target": "MAN1", "dsRNA": "DRSC04342", "mean viability with MMS": 3.52e6}
{"target": "Dph2 (Diphthamide biosynthesis 2)", "dsRNA": "DRSC16222", "mean viability with MMS": 3.63e6}
{"target": "wbl (windbeutel)", "dsRNA": "DRSC07718", "mean viability with MMS": 3.54e6}
{"target": "Gos28 (Golgi SNARE, 28 kDa)", "dsRNA": "DRSC16292", "mean viability with MMS": 3.58e6}
{"target": "Gos28 (Golgi SNARE, 28 kDa)", "dsRNA": "DRSC22859", "mean viability with MMS": 3.60e6}
{"target": "Boh2 (Buddy of Hmr 2)", "dsRNA": "DRSC02777", "mean viability with MMS": 3.57e6}
{"target": "Pits (Protein interacting with Ttk69 and Sin3A)", "dsRNA": "DRSC19385", "mean viability with MMS": 3.38e6}
{"target": "Pits (Protein interacting with Ttk69 and Sin3A)", "dsRNA": "DRSC19812", "mean viability with MMS": 3.61e6}
{"target": "Desi (Desiccate)", "dsRNA": "DRSC14909", "mean viability with MMS": 3.67e6}
{"target": "CG30031 + deltaTry + gammaTry", "dsRNA": "DRSC07622", "mean viability with MMS": 3.28e6}
{"target": "Nepl12 (Neprilysin-like 12)", "dsRNA": "DRSC16411", "mean viability with MMS": 4.04e6}
{"target": "CCHa2-R (CCHamide-2 receptor)", "dsRNA": "DRSC04825", "mean viability with MMS": 3.39e6}
{"target": "CCHa2-R (CCHamide-2 receptor)", "dsRNA": "DRSC04870", "mean viability with MMS": 3.43e6}
{"target": "CCHa2-R (CCHamide-2 receptor)", "dsRNA": "DRSC04871", "mean viability with MMS": 3.34e6}
{"target": "CG12929", "dsRNA": "DRSC06242", "mean viability with MMS": 3.47e6}
{"target": "Tnks (tankyrase)", "dsRNA": "DRSC14154", "mean viability with MMS": 3.40e6}
{"target": "CG4666", "dsRNA": "DRSC18379", "mean viability with MMS": 3.53e6}
{"target": "Acox57D-p (acyl-Coenzyme A oxidase at 57D proximal)", "dsRNA": "DRSC04560", "mean viability with MMS": 3.53e6}
{"target": "Srrm234 (Serine-arginine repetitive matrix 2/3/4)", "dsRNA": "DRSC07955", "mean viability with MMS": 3.63e6}
{"target": "Srrm234 (Serine-arginine repetitive matrix 2/3/4)", "dsRNA": "DRSC08606", "mean viability with MMS": 3.54e6}
{"target": "lky (leaky)", "dsRNA": "DRSC20682", "mean viability with MMS": 3.50e6}
{"target": "CG32236", "dsRNA": "DRSC08117", "mean viability with MMS": 3.42e6}
